Reference: article PMC7018646
Results are given in words; binding and its absence hold for the method and conditions named.

The chains behind the UniProt entries cited, without tags or fusion partners.
UniProt P40709: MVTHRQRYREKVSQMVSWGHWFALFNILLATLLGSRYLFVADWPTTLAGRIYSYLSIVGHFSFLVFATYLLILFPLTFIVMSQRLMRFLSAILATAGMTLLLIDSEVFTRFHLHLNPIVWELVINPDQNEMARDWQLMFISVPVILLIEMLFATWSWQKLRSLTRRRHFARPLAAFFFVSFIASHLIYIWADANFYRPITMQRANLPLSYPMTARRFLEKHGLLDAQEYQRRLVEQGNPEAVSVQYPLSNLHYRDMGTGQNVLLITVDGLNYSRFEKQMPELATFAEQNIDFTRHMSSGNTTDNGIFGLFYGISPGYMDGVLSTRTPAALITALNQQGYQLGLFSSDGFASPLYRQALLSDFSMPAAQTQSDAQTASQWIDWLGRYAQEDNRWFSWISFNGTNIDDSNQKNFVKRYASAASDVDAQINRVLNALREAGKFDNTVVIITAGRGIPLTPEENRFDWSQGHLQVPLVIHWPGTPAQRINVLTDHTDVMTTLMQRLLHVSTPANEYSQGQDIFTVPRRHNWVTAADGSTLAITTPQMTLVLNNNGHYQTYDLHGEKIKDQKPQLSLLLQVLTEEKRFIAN

Molecular target: PbgA (PhoPQ barrier gene A), full-length, S. Typhimurium (S. Typhimurium 14028s) (UniProt P40709)
Assay: SEC-MALS; PbgA in solution; conditions of the SEC-MALS run are not told (protein purified in 20 mM HEPES pH 7.0, 150 mM NaCl, 0.03% DDM); both purified

Substance: PbgA (PhoPQ barrier gene A), full-length, S. Typhimurium (from UniProt P40709 1-586)
- binding: no binding
